Test results taken from patent publication US11446353B2, “Compositions and methods for the treatment of fungal infections” (priority 2014, dated 2022).

Tested on: Coccidioides posadasii Δcts2/Δard1/Δcts3

## CC/C(=C(\c1ccccc1)c1ccc(OCCN(C)C)cc1)c1ccccc1 [Tamoxifen]
  IC50 values over the course of the experiment: slowly increased
